Data taken from publication PMC6271870, “Study on the Synthesis, Biological Activity and Spectroscopy of Naphthalimide-Diamine Conjugates” (Molecules, 2014).

Experiments:
[1] = system: herring sperm DNA-EB; experiment: Fluorescence quenching of DNA-EB complex by compound (EB displacement); assay type: binding; settings: 7f with DNA-EB; for ∆H°: van't Hoff
Excerpt: Ethidium bromide (EB) is a well known DNA intercalator, which is often used as a spectral probe to establish the mode of binding of small molecules to double-helical DNA [41]. The ﬂuorescence of EB increases after binding with DNA due to intercalation. Like EB, if naphthalimides intercalate into the helix of DNA, it would compete with EB for its intercalation sites in DNA, and the displacement of EB from the DNA–EB complex leads to a signiﬁcant decrease in the ﬂuorescence intensity of the DNA-EB complex. Therefore, herring sperm DNA-EB complex in the presence of increasing concentrations of naphthalimide-diamine conjugate 7f was also measured.
(§1) The Stern–Volmer equation is the following: F0/F = 1+ KSVc = 1+ […] where F0 and F are the ﬂuorescence intensities in the absence and presence of quencher (DNA for compound 7f or compound 7f for DNA-EB, respectively), KSV is the Stern-Volmer quenching constant, [c] is the concentration of DNA (or compound 7f), Kq is the biomolecule quenching rate constant and Kq = KSV/τ0. τ0 is the average lifetime of the molecule without any quencher and the ﬂuorescence lifetime of the biopolymer is 10^−8 s. The Stern–Volmer plots of F0/F versus [c] at the three temperatures were shown in Figure 9 and Figure 10, and the calculated KSV and Kq values were presented in Table 2 and Table 3.
(§2) When small molecules bind independently to a set of equivalent sites in a macromolecule, the binding constant (Kb) can be determined by the following equation [40, 52]: log[1/c] = log [F/(F0 − F)] + logKb(3) where Kb denotes the binding constant for interaction of naphthalimide–DNA, and F0, F, [c] have the same meanings as in Equation (2).
(§3) There are several acting forces between a small organic molecule and biomacromolecules, such as hydrophobic force, hydrogen bond, van der Waals force, electrostatic interactions, etc.
Solution of herring sperm DNA (0.3 mL, 2.284 × 10^−5 mol∙L^−1 in Tris-HCl (pH = 7.4) and 0.5 mL EB (1.57 × 10^−5 mol∙L^−1) was mixed with 0.0, 0.10, 0.20, 0.30, 0.60, 0.90 1.20, 1.50, 1.80, 2.10, 2.40, 2.70 and 3.00 mL of compound 7f (2.0 × 10^−4 mol∙L^−1) respectively. The mixture was diluted to 5 mL with Tris-HCl (pH = 7.4). Thus, samples were prepared in the concentration of compound 7f at 0.0, 4.0, 8.0, 12.0, 24.0, 36.0, 48.0, 60.0, 72.0, 84.0, 96.0 and 108.0 and 120.0 × 10^−6 mol∙L^−1. One contained only DNA (13.7 × 10^−6 mol∙L^−1) and EB (15.7 × 10^−6 mol∙L^−1) as control, the others contained different concentration of compound 7f but had the same concentration of DNA and EB. All the above solution was shaken for 30 min. at room temperature. Fluorescence wavelengths and intensity areas of samples were measured at following conditions: EX = 510 nm, EM = 520~800 nm; temperature: 298, 303 and 310 K.

[2] = system: herring sperm DNA; experiment: Fluorescence quenching of compound by DNA (Stern-Volmer, binding constant, thermodynamics); settings: 7f with DNA; for ∆H°: van't Hoff
Excerpt: as §1, §2, §3
Preparation of sample is the same as that of UV-Vis measurement. Fluorescence wavelengths and intensity areas of samples were measured at following conditions: EX = 345 nm, EM = 355~600 nm temperature: 298, 303 and 310 K.

## Cl.Cl.NCCCCNCCCN1C(=O)c2cccc3cccc(c23)C1=O [Compound 7f, 2-[3-(4-Aminobutylamino)propyl]1H-benz-[de]isoquinoline-1,3(2H)-dione dihydrochloride]
[1]; 298 K
  ∆G°: -5.098 kcal/mol
  ∆S°: -0.0304 kcal/mol
  ∆H°: -14.156 kcal/mol
[1]; 303 K
  ∆G°: -5.0602 kcal/mol
  ∆S°: -0.0304 kcal/mol
  ∆H°: -14.156 kcal/mol
[1]; 310 K
  ∆G°: -5.0459 kcal/mol
  ∆S°: -0.0304 kcal/mol
  ∆H°: -14.156 kcal/mol
[2]; 298 K
  ∆G°: -5.1573 kcal/mol
  ∆S°: -0.00915 kcal/mol
  ∆H°: -7.8831 kcal/mol
[2]; 303 K
  ∆G°: -5.1116 kcal/mol
  ∆S°: -0.00915 kcal/mol
  ∆H°: -7.8831 kcal/mol
[2]; 310 K
  ∆G°: -5.0201 kcal/mol
  ∆S°: -0.00915 kcal/mol
  ∆H°: -7.8831 kcal/mol
